The values that follow come from publication PMC11077861.

No constants are given. Whether binding was seen depends on the method and setting. Binding seen in cells or lysates may run through a third protein. Some entries that bind do so weakly or less than the wild type. For some assays here: Where a sequence is shown, tags or fusion partners need not be part of it.

In experiment [1] the target is T1, ESM1 overexpressed in ovarian cancer cells (Flag-tagged) (human) (UniProt Q9NQ30).
T1 sequence: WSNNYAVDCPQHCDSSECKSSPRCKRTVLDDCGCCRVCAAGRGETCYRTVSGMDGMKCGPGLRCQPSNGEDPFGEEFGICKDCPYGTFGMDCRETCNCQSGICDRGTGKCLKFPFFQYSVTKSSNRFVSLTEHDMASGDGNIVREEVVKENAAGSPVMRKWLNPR
In words: co-IP; lysates of ovarian cancer cell lines (OV90, CAOV3, SKOV3) in IP lysis buffer, antibody overnight at 4 °C, protein A/G beads, Western blot; with or without ESM1 overexpression or knockdown; treatments: ginkgolic acid, simvastatin, Shikonin, UBA2 shRNA. (Immunoblotting shows a protein as a band on a membrane.)

For experiment [2], the target named is T2, Endothelial cell specific molecule 1 (ESM1), endogenous (human (endogenous in OV90 and CAOV3)) (UniProt Q9NQ30).
T2 sequence: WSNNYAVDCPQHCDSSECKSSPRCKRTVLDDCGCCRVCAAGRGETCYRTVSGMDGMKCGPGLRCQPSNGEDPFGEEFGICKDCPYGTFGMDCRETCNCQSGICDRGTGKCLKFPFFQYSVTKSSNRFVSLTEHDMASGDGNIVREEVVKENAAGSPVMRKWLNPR
Described as above.

B1: Ubiquitin-like modifier-activating enzyme 2 (UBA2), endogenous (enzyme, UniProt Q9UBT2 1-640)
chain: MALSRGLPRELAEAVAGGRVLVVGAGGIGCELLKNLVLTGFSHIDLIDLDTIDVSNLNRQFLFQKKHVGRSKAQVAKESVLQFYPKANIVAYHDSIMNPDYNVEFFRQFILVMNALDNRAARNHVNRMCLAADVPLIESGTAGYLGQVTTIKKGVTECYECHPKPTQRTFPGCTIRNTPSEPIHCIVWAKYLFNQLFGEEDADQEVSPDRADPEAAWEPTEAEARARASNEDGDIKRISTKEWAKSTGYDPVKLFTKLFKDDIRYLLTMDKLWRKRKPPVPLDWAEVQSQGEETNASDQQNEPQLGLKDQQVLDVKSYARLFSKSIETLRVHLAEKGDGAELIWDKDDPSAMDFVTSAANLRMHIFSMNMKSRFDIKSMAGNIIPAIATTNAVIAGLIVLEGLKILSGKIDQCRTIFLNKQPNPRKKLLVPCALDPPNPNCYVCASKPEVTVRLNVHKVTVLTLQDKIVKEKFAMVAPDVQIEDGKGTILISSEEGETEANNHKKLSEFGIRNGSRLQADDFLQDYTLLINILHSEDLGKDVEFEVVGDAPEKVGPKQAEDAAKSITNGSDDGAQPSTSTAQEQDDVLIVDSDEEDSSNNADVSEEERSRKRKLDEKENLSAKRSRIEQKEELDDVIALD
Consider B1, for which the binding entry in experiment [1] and in experiment [2] was “binds” in each case.
